These are yes or no findings as the source states them, for the method shown. Binding seen in cells or lysates may run through a third protein. These calls come from enrichment with a bait or labelling near it, and not all partners need be listed.
Molecular target: RNase E (PA2976) of P. aeruginosa PAO1 with a C-terminal Strep-tag II (P. aeruginosa PAO1) (UniProt Q9HZM8)
Test: affinity purification with mass spectrometry; Strep-tag II on the C-terminus of chromosomal RNase E in P. aeruginosa PAO1 as bait; cells infected with one of seven phages; eluates on SDS-PAGE, gel slices, ESI-MS/MS

Amino acid sequences for entries named in this document (tags omitted).
UniProt Q9HZM8: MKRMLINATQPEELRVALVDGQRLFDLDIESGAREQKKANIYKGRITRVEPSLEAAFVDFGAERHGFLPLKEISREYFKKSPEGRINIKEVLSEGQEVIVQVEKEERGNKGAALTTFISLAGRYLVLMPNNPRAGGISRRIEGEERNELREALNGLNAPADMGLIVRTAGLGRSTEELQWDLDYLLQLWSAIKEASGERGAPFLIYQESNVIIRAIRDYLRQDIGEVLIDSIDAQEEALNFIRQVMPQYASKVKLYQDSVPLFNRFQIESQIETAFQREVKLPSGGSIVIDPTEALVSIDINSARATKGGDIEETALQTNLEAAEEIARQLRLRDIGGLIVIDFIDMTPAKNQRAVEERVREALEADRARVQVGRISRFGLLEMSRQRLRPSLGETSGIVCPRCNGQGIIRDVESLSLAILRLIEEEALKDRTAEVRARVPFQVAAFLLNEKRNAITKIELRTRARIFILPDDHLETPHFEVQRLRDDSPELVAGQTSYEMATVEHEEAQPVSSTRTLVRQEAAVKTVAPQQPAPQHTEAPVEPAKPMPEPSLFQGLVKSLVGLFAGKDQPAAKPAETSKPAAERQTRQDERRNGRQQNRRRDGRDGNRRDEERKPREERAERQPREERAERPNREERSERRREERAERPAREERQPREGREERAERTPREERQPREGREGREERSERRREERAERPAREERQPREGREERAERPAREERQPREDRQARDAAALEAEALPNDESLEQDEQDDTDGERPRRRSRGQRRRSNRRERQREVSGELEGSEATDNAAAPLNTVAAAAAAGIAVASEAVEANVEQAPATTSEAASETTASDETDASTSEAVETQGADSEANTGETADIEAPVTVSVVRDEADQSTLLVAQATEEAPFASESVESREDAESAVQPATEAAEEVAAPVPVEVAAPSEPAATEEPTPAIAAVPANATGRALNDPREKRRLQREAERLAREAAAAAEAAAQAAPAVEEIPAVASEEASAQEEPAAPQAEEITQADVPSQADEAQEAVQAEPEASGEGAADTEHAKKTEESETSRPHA

binding | Binder
binds | DeaD of P. aeruginosa, endogenous (enzyme, UniProt Q9I003 1-567) MGLCGCIRGKPMTQETVGFAALGIHPNVLAAIVAVGYEEPSPIQAQSIPLILEGHDMIGQAQTGTGKTAAFALPLLSRIDPSRREPQMLVLVPTRELALQVATACETYSKQLPGVGVVAVYGGAPMGPQLKALRQGAQILVATPGRLCDHLRRDEKLLATVQRLVLDEADEMLKLGFMDDLEVIFEALPESRQTVLFSATLPASIRGIAERHLKQPKHVKIAAKTQTVARIEQVHLMVHADQKAGSIQRLLEVEQFDALIAFVRTKQATLDYAELLERQGYRAAALNGDMPQAQRERVIESLKDGSLDIVIATDVAARGLDVPRITHVLNIDMPYDPESYVHRIGRTGRAGREGRALLLVTPRERRMLQVIERVTGQKVGEVRLPDAETVLEARLARLAASLTPLLDSAVEQRGAVRDELCRRLGCDAETLAAALLARLTAGKALDLESVRREQPLTPSAPRERADRGERGERPERSGERRPMAPPSEGRARCRTALGARDGVAAKNLLGAILNEGGLSREDIGRIQIRDTFSLIELPEANLERLLTKLKDTRVAGKALRLRRYRED
binds | PNPase (polynucleotide phosphorylase) of P. aeruginosa, endogenous (enzyme, UniProt Q9HV59 1-701) MNPVTKQFQFGQSTVTLETGRIARQATGAVLVTMDDVSVLVTVVGAKSPAEGRDFFPLSVHYQEKTYAAGRIPGGFFKREGRPSEKETLTSRLIDRPIRPLFPEGFMNEVQVVCTVVSTNKKSDPDIAAMIGTSAALAISGIPFAGPIGAARVGFHPEIGYILNPTYEQLQSSSLDMVVAGTEDAVLMVESEADELTEDQMLGAVLFAHDEFQAVIRAVKELAAEAGKPAWDWKAPAENTVLVNAIKAELGEAISQAYTITIKQDRYNRLGELRDQAVALFAGEEEGKFPASEVKDVFGLLEYRTVRENIVNGKPRIDGRDTRTVRPLRIEVGVLGKTHGSALFTRGETQALVVATLGTARDAQLLDTLEGERKDAFMLHYNFPPFSVGECGRMGSPGRREIGHGRLARRGVAAMLPTQDEFPYTIRVVSEITESNGSSSMASVCGASLALMDAGVPVKAPVAGIAMGLVKEGEKFAVLTDILGDEDHLGDMDFKVAGTDKGVTALQMDIKINGITEEIMEIALGQALEARLNILGQMNQVIAKPRAELSENAPTMLQMKIDSDKIRDVIGKGGATIRGICEETKASIDIEDDGSVKIYGETKEAAEAAKLRVLAITAEAEIGKIYVGKVERIVDFGAFVNILPGKDGLVHISQISDKRIDKVTDVLQEGQEVKVLVLDVDNRGRIKLSIKDVAAAEASGV
